Reference: patent US20200123233A1
No constants are given. Whether binding was seen depends on the method and setting. Some results given as binding are weak or reduced against the parent protein; the word gives no strength.

Legend:
[1] = target: FTM-NN (membrane anchorless form of the Long fusion protein, 70 kDa) (human respiratory syncytial virus, strain Long) (UniProt P12568); test: SPR on FTM-NN; numbers stand in Table C-5
[2] = substrate: F protein of hRSV strain Long (human respiratory syncytial virus, strain Long) (UniProt P12568); test: ELISA, 5 µg/ml hRSV (Hytest) coated
[3] = target: FTM-NN (membrane anchorless form of the Long fusion protein, 70 kDa) (human respiratory syncytial virus, strain Long) (UniProt P12568); test: ELISA, 1 µg/ml FTM-NN coated

| Binder | binding [1] | binding [2] | binding [3] |
| --- | --- | --- | --- |
| LG191E4 (VHH) VHH: EVQLVESGGGLVQAGGSLRLSCAASGPTFSADTMGWFRQAPGKEREFVATIPWSGGIAYYSDSVKGRFTMSRDNAKNTVDLQMNSLKPEDTALYYCAGSSRIYIYSDSLSERSYDYWGQGTQVTVSS | binds | – | – |
| RSVPMP7B2 (VHH) VHH: EVQLVESGGGLVQAGDSLRLSCAASGRTFSSYAMGWFRQAPGKEREFVAAISWSDGSTYYADSVKGRFTISRDNAKNTVYLQMNSLKPEDTAVYYCAADLTSTNPGSYIYIWAYDYWGQGTQVTVSS | binds | binds | binds |
| LG191D3 (VHH) VHH: EVQLVESGGGLVQAGGSLRLSCEASGRTYSRYGMGWFRQAPGKEREFVAAVSRLSGPRTVYADSVKGRFTISRDNAENTVYLQMNSLKPEDTAVYTCAAELTNRNSGAYYYAWAYDYWGQGTQVTVSS | binds | – | – |
| RSVPMP15B3 (VHH) VHH: EVQLVESGGGLVQPGGSLRLSCAASGLTLDYYALGWFRQAPGKEREGVSCISSSDHSTTYTDSVKGRFTISWDNAKNTLYLQMNSLKPGDTAVYYCAADPALGCYSGSYYPRYDYWGQGTQVTVSS | binds | binds | binds |
| RSVNC23 (VHH) VHH: EVQLVESGGGLVQPGGSLRLSCAASGRTFSSIAMGWFRQAPGKEREFVAAISWSRGRTFYADSVKGRFIISRDDAANTAYLQMNSLKPEDTAVYYCAVDTASWNSGSFIYDWAYDHWGQGTQVTVSS | binds | binds | binds |
| RSVPMP15H8 (VHH) VHH: EVQLVESGGGLVQAGGSLRLSCAASGRSFSNYVLGWFRQAPGKEREFVAAISFRGDSAIGAPSVEGRFTISRDNAKNTGYLQMNSLVPDDTAVYYCGAGTPLNPGAYIYDWSYDYWGRGTQVTVSS | binds | binds | binds |
